In PMC4740771, “Nucleotide-dependent assembly of the peroxisomal receptor export complex” (Scientific Reports, 2016):
These are yes or no findings as the source states them, for the method shown. Binding seen in cells or lysates may run through a third protein. Some binding calls cover weakened binding; strength is not graded here.

T1: Pex6pTPA (S. cerevisiae) (UniProt P33760)
T1 sequence: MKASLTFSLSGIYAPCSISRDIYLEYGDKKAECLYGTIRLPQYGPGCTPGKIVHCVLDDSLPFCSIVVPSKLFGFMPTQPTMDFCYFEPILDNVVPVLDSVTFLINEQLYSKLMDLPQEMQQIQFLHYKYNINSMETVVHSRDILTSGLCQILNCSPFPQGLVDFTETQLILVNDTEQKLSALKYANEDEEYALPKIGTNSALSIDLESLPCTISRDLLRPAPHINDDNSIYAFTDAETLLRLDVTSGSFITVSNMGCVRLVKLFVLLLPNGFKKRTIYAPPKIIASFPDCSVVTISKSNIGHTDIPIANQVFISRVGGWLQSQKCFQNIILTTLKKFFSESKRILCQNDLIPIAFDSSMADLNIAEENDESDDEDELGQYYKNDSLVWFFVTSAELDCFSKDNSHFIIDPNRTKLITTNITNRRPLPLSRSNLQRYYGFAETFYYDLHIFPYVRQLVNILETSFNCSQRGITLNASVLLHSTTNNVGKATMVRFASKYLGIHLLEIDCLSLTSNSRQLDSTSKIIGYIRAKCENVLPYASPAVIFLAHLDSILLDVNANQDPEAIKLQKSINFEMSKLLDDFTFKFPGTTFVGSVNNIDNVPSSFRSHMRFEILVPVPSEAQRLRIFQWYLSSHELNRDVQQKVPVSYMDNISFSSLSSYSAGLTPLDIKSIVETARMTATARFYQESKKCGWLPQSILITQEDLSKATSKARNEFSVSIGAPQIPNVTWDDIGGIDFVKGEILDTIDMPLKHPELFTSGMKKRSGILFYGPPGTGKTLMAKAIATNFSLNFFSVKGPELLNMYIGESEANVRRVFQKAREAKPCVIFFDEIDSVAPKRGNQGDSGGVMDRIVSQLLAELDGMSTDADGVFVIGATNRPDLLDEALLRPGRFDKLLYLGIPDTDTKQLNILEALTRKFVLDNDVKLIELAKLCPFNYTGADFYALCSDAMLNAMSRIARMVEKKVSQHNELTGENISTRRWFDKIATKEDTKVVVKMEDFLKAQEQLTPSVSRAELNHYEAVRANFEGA

T2: Pex1pTPA (S. cerevisiae) (UniProt P24004)
T2 sequence: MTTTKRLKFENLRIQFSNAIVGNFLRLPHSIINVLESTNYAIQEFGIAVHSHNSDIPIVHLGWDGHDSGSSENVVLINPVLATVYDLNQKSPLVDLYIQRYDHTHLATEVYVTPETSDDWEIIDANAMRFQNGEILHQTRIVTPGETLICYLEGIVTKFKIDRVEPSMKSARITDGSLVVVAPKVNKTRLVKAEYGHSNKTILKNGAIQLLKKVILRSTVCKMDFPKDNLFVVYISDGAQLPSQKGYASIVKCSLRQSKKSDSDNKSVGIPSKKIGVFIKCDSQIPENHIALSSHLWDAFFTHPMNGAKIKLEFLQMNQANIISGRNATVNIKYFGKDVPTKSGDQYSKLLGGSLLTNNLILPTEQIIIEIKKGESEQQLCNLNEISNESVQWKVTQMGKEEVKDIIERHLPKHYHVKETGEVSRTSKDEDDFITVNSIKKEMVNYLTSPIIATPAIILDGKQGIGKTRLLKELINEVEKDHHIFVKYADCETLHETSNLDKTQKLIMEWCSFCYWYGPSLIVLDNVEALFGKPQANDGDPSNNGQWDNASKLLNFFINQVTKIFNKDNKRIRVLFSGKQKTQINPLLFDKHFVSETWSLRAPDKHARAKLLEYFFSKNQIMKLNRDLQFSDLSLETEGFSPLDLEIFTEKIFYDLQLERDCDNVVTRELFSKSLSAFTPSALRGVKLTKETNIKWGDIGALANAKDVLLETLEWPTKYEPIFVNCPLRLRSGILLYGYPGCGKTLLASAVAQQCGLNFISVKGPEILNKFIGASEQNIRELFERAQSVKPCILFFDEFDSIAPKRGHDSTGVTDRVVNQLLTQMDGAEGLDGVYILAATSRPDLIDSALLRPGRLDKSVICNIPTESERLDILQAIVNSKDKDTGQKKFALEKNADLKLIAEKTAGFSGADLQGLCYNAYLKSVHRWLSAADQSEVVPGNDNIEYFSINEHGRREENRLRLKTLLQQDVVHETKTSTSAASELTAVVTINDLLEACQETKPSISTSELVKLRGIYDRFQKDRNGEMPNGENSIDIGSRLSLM

B1: Pex1p expressed from pRS416-Pex1p in Δpex1Pex6pTPA yeast (protein, UniProt P24004 1-1043)
chain: MTTTKRLKFENLRIQFSNAIVGNFLRLPHSIINVLESTNYAIQEFGIAVHSHNSDIPIVHLGWDGHDSGSSENVVLINPVLATVYDLNQKSPLVDLYIQRYDHTHLATEVYVTPETSDDWEIIDANAMRFQNGEILHQTRIVTPGETLICYLEGIVTKFKIDRVEPSMKSARITDGSLVVVAPKVNKTRLVKAEYGHSNKTILKNGAIQLLKKVILRSTVCKMDFPKDNLFVVYISDGAQLPSQKGYASIVKCSLRQSKKSDSDNKSVGIPSKKIGVFIKCDSQIPENHIALSSHLWDAFFTHPMNGAKIKLEFLQMNQANIISGRNATVNIKYFGKDVPTKSGDQYSKLLGGSLLTNNLILPTEQIIIEIKKGESEQQLCNLNEISNESVQWKVTQMGKEEVKDIIERHLPKHYHVKETGEVSRTSKDEDDFITVNSIKKEMVNYLTSPIIATPAIILDGKQGIGKTRLLKELINEVEKDHHIFVKYADCETLHETSNLDKTQKLIMEWCSFCYWYGPSLIVLDNVEALFGKPQANDGDPSNNGQWDNASKLLNFFINQVTKIFNKDNKRIRVLFSGKQKTQINPLLFDKHFVSETWSLRAPDKHARAKLLEYFFSKNQIMKLNRDLQFSDLSLETEGFSPLDLEIFTEKIFYDLQLERDCDNVVTRELFSKSLSAFTPSALRGVKLTKETNIKWGDIGALANAKDVLLETLEWPTKYEPIFVNCPLRLRSGILLYGYPGCGKTLLASAVAQQCGLNFISVKGPEILNKFIGASEQNIRELFERAQSVKPCILFFDEFDSIAPKRGHDSTGVTDRVVNQLLTQMDGAEGLDGVYILAATSRPDLIDSALLRPGRLDKSVICNIPTESERLDILQAIVNSKDKDTGQKKFALEKNADLKLIAEKTAGFSGADLQGLCYNAYLKSVHRWLSAADQSEVVPGNDNIEYFSINEHGRREENRLRLKTLLQQDVVHETKTSTSAASELTAVVTINDLLEACQETKPSISTSELVKLRGIYDRFQKDRNGEMPNGENSIDIGSRLSLM
B2: Pex1pWB (E798Q) expressed from pRS416 in Δpex1Pex6pTPA yeast (protein, UniProt P24004 1-1043)
chain: MTTTKRLKFENLRIQFSNAIVGNFLRLPHSIINVLESTNYAIQEFGIAVHSHNSDIPIVHLGWDGHDSGSSENVVLINPVLATVYDLNQKSPLVDLYIQRYDHTHLATEVYVTPETSDDWEIIDANAMRFQNGEILHQTRIVTPGETLICYLEGIVTKFKIDRVEPSMKSARITDGSLVVVAPKVNKTRLVKAEYGHSNKTILKNGAIQLLKKVILRSTVCKMDFPKDNLFVVYISDGAQLPSQKGYASIVKCSLRQSKKSDSDNKSVGIPSKKIGVFIKCDSQIPENHIALSSHLWDAFFTHPMNGAKIKLEFLQMNQANIISGRNATVNIKYFGKDVPTKSGDQYSKLLGGSLLTNNLILPTEQIIIEIKKGESEQQLCNLNEISNESVQWKVTQMGKEEVKDIIERHLPKHYHVKETGEVSRTSKDEDDFITVNSIKKEMVNYLTSPIIATPAIILDGKQGIGKTRLLKELINEVEKDHHIFVKYADCETLHETSNLDKTQKLIMEWCSFCYWYGPSLIVLDNVEALFGKPQANDGDPSNNGQWDNASKLLNFFINQVTKIFNKDNKRIRVLFSGKQKTQINPLLFDKHFVSETWSLRAPDKHARAKLLEYFFSKNQIMKLNRDLQFSDLSLETEGFSPLDLEIFTEKIFYDLQLERDCDNVVTRELFSKSLSAFTPSALRGVKLTKETNIKWGDIGALANAKDVLLETLEWPTKYEPIFVNCPLRLRSGILLYGYPGCGKTLLASAVAQQCGLNFISVKGPEILNKFIGASEQNIRELFERAQSVKPCILFFDQFDSIAPKRGHDSTGVTDRVVNQLLTQMDGAEGLDGVYILAATSRPDLIDSALLRPGRLDKSVICNIPTESERLDILQAIVNSKDKDTGQKKFALEKNADLKLIAEKTAGFSGADLQGLCYNAYLKSVHRWLSAADQSEVVPGNDNIEYFSINEHGRREENRLRLKTLLQQDVVHETKTSTSAASELTAVVTINDLLEACQETKPSISTSELVKLRGIYDRFQKDRNGEMPNGENSIDIGSRLSLM
B3: Pex15p (endogenous, yeast membranes) (protein, UniProt Q08215 1-383)
chain: MAASEIMNNLPMHSLDSSLRDLLNDDLFIESDESTKSVNDQRSEVFQECVNLFIKRDIKDCLEKMSEVGFIDITVFKSNPMILDLFVSACDIMPSFTKLGLTLQSEILNIFTLDTPQCIETRKIILGDLSKLLVINKFFRCCIKVIQFNLTDHTEQEEKTLELESIMSDFIFVYITKMRTTIDVVGLQELIEIFIFQVKVKLHHKKPSPNMYWALCKTLPKLSPTLKGLYLSKDVSIEDAILNSIDNKIQKDKAKSKGKQRGVKQKIHHFHEPMLHNSSEEQVKVEDAFNQRTSTDSRLQSTGTAPRKKNNDITVLAGSFWAVLKHHFTRSVLNKNGLLLTGLLLLLCLKKYKSLMAIFKHVPAAFHTVYPQIVGLLKLLASI
B4: Pex5p (endogenous, yeast membranes) (receptor, UniProt P35056 1-612)
chain: MDVGSCSVGNNPLAQLHKHTQQNKSLQFNQKNNGRLNESPLQGTNKPGISEAFISNVNAISQENMANMQRFINGEPLIDDKRRMEIGPSSGRLPPFSNVHSLQTSANPTQIKGVNDISHWSQEFQGSNSIQNRNADTGNSEKAWQRGSTTASSRFQYPNTMMNNYAYASMNSLSGSRLQSPAFMNQQQSGRSKEGVNEQEQQPWTDQFEKLEKEVSENLDINDEIEKEENVSEVEQNKPETVEKEEGVYGDQYQSDFQEVWDSIHKDAEEVLPSELVNDDLNLGEDYLKYLGGRVNGNIEYAFQSNNEYFNNPNAYKIGCLLMENGAKLSEAALAFEAAVKEKPDHVDAWLRLGLVQTQNEKELNGISALEECLKLDPKNLEAMKTLAISYINEGYDMSAFTMLDKWAETKYPEIWSRIKQQDDKFQKEKGFTHIDMNAHITKQFLQLANNLSTIDPEIQLCLGLLFYTKDDFDKTIDCFESALRVNPNDELMWNRLGASLANSNRSEEAIQAYHRALQLKPSFVRARYNLAVSSMNIGCFKEAAGYLLSVLSMHEVNTNNKKGDVGSLLNTYNDTVIETLKRVFIAMNRDDLLQEVKPGMDLKRFKGEFSF
B5: Pex18p (endogenous, yeast membranes) (receptor, UniProt P38855 1-283)
chain: MNSNRCQTNEVNKFISSTEKGPFTGRDNTLSFNKIGSRLNSPPILKDKIELKFLQHSEDLNQSRSYVNIRPRTLEDQSYKFEAPNLNDNETSWAKDFRYNFPKNVEPPIENQIANLNINNGLRTSQTDFPLGFYSQKNFNIASFPVVDHQIFKTTGLEHPINSHIDSLINAEFSELEASSLEEDVHTEEENSGTSLEDEETAMKGLASDIIEFCDNNSANKDVKERLNSSKFMGLMGSISDGSIVLKKDNGTERNLQKHVGFCFQNSGNWAGLEFHDVEDRIA
B6: Pex12p (endogenous, yeast membranes) (protein, UniProt Q04370 1-399)
chain: MSFYSNLPSAGQSSRGSSTSGRNGVGLEPLYPTIFEIMSSQEIDSLLPASIRYLLANHLVANFPNRYTLRLNKYFFEWFQAIKGFVEWYHLKTYNSTFIDRFYGLQLFSSRDRNLALTQCLNPKGQSEWPQGLQLNQQQKSVIFLEKIILPYITAKLDEILEKISMNNIFSSDETENKWPKRAFLRIYPFIKKLLALSNLLVKLLFLTKRTGSVSLLQYLFKIEYTTVRPLSSELSGLKETKGMDNRLRKTNISSIFALMQGQLSIIPRFLTFMGSQFFPTFIFVLRVYQWWTTQDMTTKLQKRVNDLDEDIPRPPFSSHSDKTEDKEGVSEACPVCEKTVQNPCVLETGYVACYPCAISYLVNNEGHCPVTNKKLLGCTYNKHTNKWEVVTGIRKLLI

Columns and labels:
Pex6pTPA (S. cerevisiae) = biological target: T1, Pex6pTPA (S. cerevisiae); assay: co-IP; Pex1pTPA (Δpex6 cells with plasmid Pex6p or Pex6pWB) or Pex6pTPA (Δpex1 cells with plasmid Pex1p or Pex1pWB) isolated from 1% digitonin-solubilised total membranes on IgG-Sepharose, TEV protease eluate, immunoblot; 5 mM ATP
Pex1pTPA (S. cerevisiae) = biological target: T2, Pex1pTPA (S. cerevisiae); assay: as above

| Binder | binding (Pex6pTPA (S. cerevisiae)) | binding (Pex1pTPA (S. cerevisiae)) |
| --- | --- | --- |
| B1 | binds | – |
| B2 | binds | – |
| B3 | binds | – |
| B4 | binds | binds |
| B5 | binds | binds |
| B6 | binds | binds |
